Reference: patent publication US7189506B1, “DNA binding compound-mediated molecular switch system” (Genelabs Technologies, Inc.)
The exact form of at least one protein or probe is not confirmed. For part of these data: Where cells or extracts were used, other partners may take part.

Chains of the proteins cited; added tags and fusions are not shown. A line that says so, or that is headed by a name, gives the form on record, which may keep a tag or linker.
Thioredoxin-p50 NF-kB fusion (p50C) (Homo sapiens), one chain, as listed by the source: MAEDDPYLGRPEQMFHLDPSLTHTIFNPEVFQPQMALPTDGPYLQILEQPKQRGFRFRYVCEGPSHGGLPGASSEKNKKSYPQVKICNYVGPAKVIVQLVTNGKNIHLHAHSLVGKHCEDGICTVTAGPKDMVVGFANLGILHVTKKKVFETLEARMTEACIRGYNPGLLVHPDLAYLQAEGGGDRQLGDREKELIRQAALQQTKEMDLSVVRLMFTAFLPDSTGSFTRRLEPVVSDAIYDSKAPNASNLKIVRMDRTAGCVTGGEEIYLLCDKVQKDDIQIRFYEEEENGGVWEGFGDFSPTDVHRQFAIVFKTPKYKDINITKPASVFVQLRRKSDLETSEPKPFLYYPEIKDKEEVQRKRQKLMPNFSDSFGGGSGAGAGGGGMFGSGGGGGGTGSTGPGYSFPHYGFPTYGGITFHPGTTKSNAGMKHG

Tests used:
[1] = system: Thioredoxin-p50 NF-kB fusion (p50C) (Homo sapiens); experiment: EMSA; details: purified recombinant protein, protein details: Thioredoxin fusion (Genelabs Technologies), label: 32P
[2] = system: HNF3 (hepatocyte nuclear factor 3); experiment: EMSA; details: protein source not stated, protein in an extract

Does “CGACCGTGCTCGAGTTAACGGGATTTTCCAAAAACGATCGGACTGGACTC (double strand) [JF102]” bind ([1]; displaced by 21x more efficiently than by distamycin)?
Result: binds

Does “CGACCGTGCTCGAGAAATTGGGATTTTCCAAAAACGATCGGACTGGACTC (double strand) [JF103]” bind ([1]; displaced by 21x)?
Result: binds

Does “ACCTTGAGGCATACTTCAAAGACTGTTTATTTTAATAACGGGAGGAGTTGG (double strand) [HNF3Rds2]” bind [2]?
Result: binds

Does “ACCTTGAGGCATACTTCAAAGACTGTTGATTTAGCGAATAAGAGGAGTTGG (double strand) [HNF3Rds1]” bind ([2]; displaced by GL046732, displacement EC50 300-800 nM)?
Result: binds

Does “ACCTTGAGGCATACTTCAAAGACTGTTTATTTAAGGACTGGGAGGAGTTGG (double strand) [HNF3Rds3]” bind ([2]; slightly displaced by GL046732)?
Result: binds

Does “CGACCGTGCTCGAGTTAACGGGACTTTCCAAAAACGATCGGACTGGACTC (double strand) [JF101]” bind ([1]; displaced by 21x, less efficiently than IL-6 type site)?
Result: binds
